Our source for the displacement values is PubChem BioAssay AID1240 (Sanford-Burnham Center for Chemical Genomics, 2008).

Protein sequences, listed by entry. Tags and fused reporters are not part of them. Lines headed by an entry give the natural chain unless they say otherwise; changes in a name come on top.
UniProt Q9HD36: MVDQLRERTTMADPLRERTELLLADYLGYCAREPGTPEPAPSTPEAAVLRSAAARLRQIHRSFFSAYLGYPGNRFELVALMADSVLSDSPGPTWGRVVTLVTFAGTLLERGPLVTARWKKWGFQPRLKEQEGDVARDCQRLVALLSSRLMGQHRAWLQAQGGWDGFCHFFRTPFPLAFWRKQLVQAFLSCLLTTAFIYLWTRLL

Shown are results outside the selection of strong results, which stands elsewhere.

The target of this experiment is Bcl-2-like protein 10 (Homo sapiens) (UniProt Q9HD36). The experiment in a line: Phenotype converters, Bcl-B/TR3 peptide binding displacement, primary biochemical FP (AID 1240).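 Note: 0% = Bcl-B with tracer peptide and DMSO and 100% = tracer peptide lacking Bcl-B.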 To be noted: GST-Bcl-B / FITC-TR3 peptide fluorescence polarization; stronger effect = higher value; compound at 3.75 mg/L. For orientation: Fluorescence polarisation rises when a labelled molecule tumbles more slowly, as on binding a larger partner.
With `O=C(/C=C/c1ccccc1)Nc1cccc(F)c1`, the displacement worked out at 13.5%.
In the case of `O=c1oc2cc(OCc3ccccc3)ccc2c2ccccc12`, the displacement is -13.3%.
In the case of `O=C(/C=C/c1ccccc1)Nc1ccc(F)cc1`, the displacement was 10.8%.
